Reference: patent publication US20050013939A1, “Boron-based wood preservatives and treatment of wood with boron-based preservatives” (priority 2001, published 2005)

What was measured:
[1] = Example 6: penetration of TMB in radiata pine treated by Lowry process or by dipping; conditions: for Boric acid equivalent % / Penetration % / Net uptake / Gross uptake: MC 10-12%
[2] = Example 1: dipping of messmate in pure trimethyl borate, retention and spot-test penetration; set-up: species or system Eucalyptus Obliqua
[3] = Example 5: emission and dissipation of TMB and methanol in desiccator after momentary immersion; set-up: species or system radiata pine
[4] = Example 4: dipping 30 seconds in different solution temperatures of TMB; set-up: species or system radiata pine
[5] = Examples 2 and 3: dipping of radiata pine in pure trimethyl borate, retention and spot-test penetration
[6] = Dipping 30 seconds, pure TMB 100%
[7] = LP, 1.25% TMB (vol/vol) in kerosene
[8] = LP, 2.50% TMB (vol/vol) in kerosene
[9] = LP, 5.00% TMB (vol/vol) in kerosene
[10] = wood samples at 12% moisture content

Structure (SMILES): COB(OC)OC [TMB, trimethyl borate]
- Boric acid equivalent % [1, 6]: 1.15%
- Penetration % [1, 6]: 46%
- Net uptake ([1]; Dipping 30 seconds, pure TMB 100%, 5 days in polyester bag): 6.04 l/m^3
- Boric acid equivalent % [1, 7]: 0.13%
- Gross uptake [1, 7]: 87 l/m^3
- Net uptake [1, 7]: 39 l/m^3
- Penetration % [1, 7]: 95%
- Boric acid equivalent % [1, 8]: 0.21%
- Gross uptake [1, 8]: 76 l/m^3
- Net uptake [1, 8]: 33 l/m^3
- Penetration % [1, 8]: 80%
- Boric acid equivalent % [1, 9]: 0.53%
- Gross uptake [1, 9]: 92 l/m^3
- Net uptake [1, 9]: 40 l/m^3
- Penetration % [1, 9]: 85%
- penetration of sapwood samples ([1]; treated by LP, all cases): over 90%
- uptake ([2]; matched messmate, dipping for 1 minute): 3.6 kg/m3
- Preservative retention (kgs TMB) ([2]; messmate 6% moisture content, dipping with initial vacuum -65 kPa 5 minutes): approximately 4.8 kg/m3
- depth of penetration (spot-testing) ([2]; messmate 6% moisture content, vacuum dipping, 24 hours in polythene envelope): 8 mm
- changes in the volume of the samples ([3]; 12% moisture content): 1.03%
- mean retention of boric acid ([3]; 12% moisture content, 8 days after treatment): 1.69 % wt/wt
- TMB concentration in the desiccator environment ([3]; 5 minutes after treatment): 426 ppm
- TMB concentration in the desiccator environment ([3]; 22 hours after treatment): 20 ppm
- TMB concentration in the desiccator environment ([3]; after 9 days): 5 ppm
- mean depth of penetration [3, 10]: 8.67 mm
- mean percentage TMB penetration [3, 10]: 51%
- Average Chemical Uptake ([4]; solution temperature 5 °C): 19.16 Kg/m3
- Average Chemical Uptake ([4]; solution temperature 20 °C): 14.738 Kg/m3
- Average Chemical Uptake ([4]; solution temperature −10 °C): 24.122 Kg/m3
- Mean charge retention ([5]; 2 second immersion): 8.3 kg/m3 TMB
- spot-testing of preservative penetration ([5]; 2 second immersion): total penetration of the cross-section
- spot-testing of preservative penetration ([5]; 30 seconds dip, sealed in polythene envelope, within 2 hours): substantial penetration
- chemical penetration ([5]; Example 3, no envelope): Total chemical penetration
- loss of chemical by surface hydrolysis and evaporation ([5]; Example 3, no envelope): substantial loss of chemical
- mean charge retention of TMB ([5]; radiata pine 6% moisture content, 30 seconds dip): 13.4 kg/m3
